One molecule from paper PMC3181323 can be followed below.

Amino acid sequences for entries named in this document (tags omitted).
UniProt Q80Y84: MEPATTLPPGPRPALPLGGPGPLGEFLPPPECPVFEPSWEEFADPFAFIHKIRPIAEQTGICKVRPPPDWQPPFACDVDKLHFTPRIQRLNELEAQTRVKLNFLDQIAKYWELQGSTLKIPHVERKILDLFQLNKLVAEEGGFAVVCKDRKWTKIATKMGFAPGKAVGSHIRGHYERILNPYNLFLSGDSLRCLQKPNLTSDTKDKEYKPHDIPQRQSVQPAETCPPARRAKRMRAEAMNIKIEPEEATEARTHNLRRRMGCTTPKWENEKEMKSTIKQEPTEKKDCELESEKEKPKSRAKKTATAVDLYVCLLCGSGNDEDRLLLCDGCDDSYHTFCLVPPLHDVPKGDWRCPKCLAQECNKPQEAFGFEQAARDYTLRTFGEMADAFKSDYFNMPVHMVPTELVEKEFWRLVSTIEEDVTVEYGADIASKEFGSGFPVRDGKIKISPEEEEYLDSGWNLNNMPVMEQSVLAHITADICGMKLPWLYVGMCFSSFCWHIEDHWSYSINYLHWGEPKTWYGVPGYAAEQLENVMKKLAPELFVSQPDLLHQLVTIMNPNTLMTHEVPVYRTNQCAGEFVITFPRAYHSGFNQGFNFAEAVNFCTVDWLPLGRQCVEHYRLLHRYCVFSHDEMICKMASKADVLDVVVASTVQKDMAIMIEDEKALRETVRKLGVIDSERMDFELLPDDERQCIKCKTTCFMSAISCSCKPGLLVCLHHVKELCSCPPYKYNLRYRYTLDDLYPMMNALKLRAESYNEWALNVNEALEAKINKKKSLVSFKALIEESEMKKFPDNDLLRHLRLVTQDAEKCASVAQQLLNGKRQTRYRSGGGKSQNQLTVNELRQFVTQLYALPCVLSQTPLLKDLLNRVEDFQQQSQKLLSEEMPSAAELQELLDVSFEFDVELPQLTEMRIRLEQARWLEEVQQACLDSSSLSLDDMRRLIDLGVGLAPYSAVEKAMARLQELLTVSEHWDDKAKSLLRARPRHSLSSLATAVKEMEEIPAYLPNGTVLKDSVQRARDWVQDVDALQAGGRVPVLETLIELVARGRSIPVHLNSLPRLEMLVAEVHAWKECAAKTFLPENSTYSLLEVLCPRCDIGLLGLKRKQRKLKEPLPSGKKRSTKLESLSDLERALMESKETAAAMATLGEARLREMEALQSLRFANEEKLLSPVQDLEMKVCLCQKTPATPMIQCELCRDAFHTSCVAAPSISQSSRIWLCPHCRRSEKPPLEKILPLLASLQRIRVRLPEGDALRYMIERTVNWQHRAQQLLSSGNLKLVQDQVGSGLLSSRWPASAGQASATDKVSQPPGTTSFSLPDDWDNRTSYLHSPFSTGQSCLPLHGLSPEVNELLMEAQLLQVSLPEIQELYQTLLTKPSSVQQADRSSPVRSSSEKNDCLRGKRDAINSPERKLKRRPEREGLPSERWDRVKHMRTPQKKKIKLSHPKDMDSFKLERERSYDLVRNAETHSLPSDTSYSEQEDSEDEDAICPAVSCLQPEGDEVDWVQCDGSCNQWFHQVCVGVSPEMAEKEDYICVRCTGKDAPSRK

No constants are given. Whether binding was seen depends on the method and setting. In cells and extracts the contact can be indirect. Some results given as binding are weak or reduced against the parent protein; the word gives no strength.

In this assay the target is Jarid1b (Kdm5b) (mouse (endogenous in MN-tsLT)) (UniProt Q80Y84). Nature of the assay: co-IP; total cell lysate of 8x10^6 senescent MN-tsLT cells (4 days at 39°C); immunoprecipitation of endogenous Jarid1b with 8 µl anti-Jarid1b (#3273, Cell Signaling Technology) in ELB (250 mM NaCl, 50 mM Hepes pH 7.3, 0.1% NP40, protease inhibitors); western blot with anti-Rb (#554136, BD Pharmingen).

B1: Rb (protein, UniProt P13405 1-921)
chain: MPPKAPRRAAAAEPPPPPPPPPREDDPAQDSGPEELPLARLEFEEIEEPEFIALCQKLKVPDHVRERAWLTWEKVSSVDGILEGYIQKKKELWGICIFIAAVDLDEMPFTFTELQKSIETSVYKFFDLLKEIDTSTKVDNAMSRLLKKYNVLCALYSKLERTCELIYLTQPSSALSTEINSMLVLKISWITFLLAKGEVLQMEDDLVISFQLMLCVVDYFIKFSPPALLREPYKTAAIPINGSPRTPRRGQNRSARIAKQLENDTRIIEVLCKEHECNIDEVKNVYFKNFIPFINSLGIVSSNGLPEVESLSKRYEEVYLKNKDLDARLFLDHDKTLQTDPIDSFETERTPRKNNPDEEANVVTPHTPVRTVMNTIQQLMVILNSASDQPSENLISYFNNCTVNPKENILKRVKDVGHIFKEKFANAVGQGCVDIGVQRYKLGVRLYYRVMESMLKSEEERLSIQNFSKLLNDNIFHMSLLACALEVVMATYSRSTLQHLDSGTDLSFPWILNVLNLKAFDFYKVIESFIKVEANLTREMIKHLERCEHRIMESLAWLSDSPLFDLIKQSKDGEGPDNLEPACPLSLPLQGNHTAADMYLSPLRSPKKRTSTTRVNSAANTETQAASAFHTQKPLKSTSLALFYKKVYRLAYLRLNTLCARLLSDHPELEHIIWTLFQHTLQNEYELMRDRHLDQIMMCSMYGICKVKNIDLKFKIIVTAYKDLPHAAQETFKRVLIREEEFDSIIVFYNSVFMQRLKTNILQYASTRPPTLSPIPHIPRSPYKFSSSPLRIPGGNIYISPLKSPYKISEGLPTPTKMTPRSRILVSIGESFGTSEKFQKINQMVCNSDRVLKRSAEGGNPPKPLKKLRFDIEGADEADGSKHLPAESKFQQKLAEMTSTRTRMQKQRMNESKDVSNKEEK
Take B1: the binding result is given as “binds”.
